The target in the assay is PLA2 (purified snake venom phospholipase A2) (Crotalus adamanteus or Calloselasma rhodostoma (both named, not resolved)). The assay can be described thus: panning, phage ELISA and purified-VHH ELISA on coated toxin.

These results are taken from patent US20200157197A1 (VENOMYX, published 2020).

Results are given in words; binding and its absence hold for the method and conditions named. Binding calls can cover weak binding; strength is not graded here.

B1: Anti-PLA2 VHH (H3) (VHH)
VHH: QVQLQQSGGGLVQAGDSLRLSCAASGRTFRDRAMNWFRQAPGKEREFVAAIHWSDGRTYYADSVKGRFTISRDNAKNTGSLQMDSLKTEDTGVYYCAIVMAYPWTTPGGINDWGKGTLVTVSS
With B1, the binding result is reported as “binds”.
